This note sets out measurements from publication PMC10923651.

Sequences of proteins named here, by UniProt entry; tags and fusion partners are left off.
UniProt Q9BPL7: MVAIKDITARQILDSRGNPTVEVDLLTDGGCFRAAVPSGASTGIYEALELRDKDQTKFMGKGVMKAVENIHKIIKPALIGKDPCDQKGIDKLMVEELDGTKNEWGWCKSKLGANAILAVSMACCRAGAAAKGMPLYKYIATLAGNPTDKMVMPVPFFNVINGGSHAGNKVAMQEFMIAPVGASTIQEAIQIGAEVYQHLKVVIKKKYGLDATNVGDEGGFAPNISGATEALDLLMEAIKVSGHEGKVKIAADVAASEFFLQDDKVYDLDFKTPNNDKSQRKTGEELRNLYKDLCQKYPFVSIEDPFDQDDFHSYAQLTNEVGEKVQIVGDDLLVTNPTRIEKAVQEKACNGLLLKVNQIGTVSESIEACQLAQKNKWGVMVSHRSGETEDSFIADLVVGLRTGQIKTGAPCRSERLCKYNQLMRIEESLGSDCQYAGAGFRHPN
UniProt A0A125YIH2: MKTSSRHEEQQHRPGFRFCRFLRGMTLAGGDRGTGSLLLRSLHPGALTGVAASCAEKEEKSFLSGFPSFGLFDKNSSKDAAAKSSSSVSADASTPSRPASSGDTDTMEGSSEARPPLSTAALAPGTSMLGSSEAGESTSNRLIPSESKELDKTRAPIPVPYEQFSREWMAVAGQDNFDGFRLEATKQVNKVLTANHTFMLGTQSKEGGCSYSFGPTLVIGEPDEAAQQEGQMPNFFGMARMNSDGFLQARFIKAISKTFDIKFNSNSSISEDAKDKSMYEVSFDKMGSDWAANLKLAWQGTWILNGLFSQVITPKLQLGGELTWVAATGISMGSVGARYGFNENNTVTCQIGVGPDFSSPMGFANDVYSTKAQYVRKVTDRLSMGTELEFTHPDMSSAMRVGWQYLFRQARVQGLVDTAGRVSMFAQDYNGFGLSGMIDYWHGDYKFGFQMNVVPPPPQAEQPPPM

Results are given in words; binding and its absence hold for the method and conditions named. Binding seen in cells or lysates may run through a third protein. Some binding calls cover weakened binding; strength is not graded here.

For assay [1], the target named is N-terminally HA-tagged TgNup503 (Toxoplasma gondii) (UniProt S8GIN8). In words: co-IP; anti-HA magnetic beads; full cell lysate of 4 × 10^8 to 2 × 10^9 parasites in 2% DDM/PBS/proteinase inhibitor, 16–24 h at 4°C, washes in PBS; fractions analysed by Western blot. (Immunoblotting shows a protein as a band on a membrane.)
Assay [2] concerns the target HA-tagged TgNup302 (Toxoplasma gondii). The description is as above.

TgENO2 (from UniProt Q9BPL7 1-444): the binding result in assay [1] was “no binding”.

As to TgTom40 (from UniProt A0A125YIH2 1-466), the binding entry in assay [1] and in assay [2] was “binds” throughout.
